Measurements: patent US20230346820A1, “METHODS AND COMPOSITIONS FOR THE TREATMENT OF SARS-COV-2” (priority 2020, published 2023)
Structures can show the parent of a compound that is named as a salt.

What was measured:
SARS-CoV-2 [1] = test system: SARS-CoV-2
HeLa-ACE2 cells = test: cells; format: cell-based; settings: Homo sapiens, HeLa-ACE2, read-out: HeLa-ACE-2 EC50 [μM] (Geomeans, n ≥ 2)
SARS-CoV-2 [2] = test: microbe, parasite or virus in culture; settings: Severe acute respiratory syndrome coronavirus 2, HeLa-ACE2, 24 h, read-out: CoV-2 EC50 [μM] (Geomeans, n ≥ 2)

CN1C[C@@H]2c3ccccc3Oc3ccc(Cl)cc3[C@H]2C1 (racemic) [Asenapine maleate] was tested, and the “HeLa-ACE2 CC50/CoV-2 EC50” value (SARS-CoV-2 [1]) was over 14.68, the EC50 (HeLa-ACE2 cells) was over 9.6 µM and the EC50 (SARS-CoV-2 [2]) was over 2.43 µM.
